Measurements: patent publication US20070224194A1, “Methods for Inhibiting Angiogenesis and/or Lymphangiogenesis” (LUDWIG INSTITUTE FOR CANCER RESEARCH, priority 2004, published 2007)
No constants are given. Whether binding was seen depends on the method and setting. For some assays here: Binding seen in cells or lysates may run through a third protein. Some entries that bind do so weakly or less than the wild type.

Protein sequences, listed by entry. Tags and fused reporters are not part of them. Residues count along the entry.
UniProt P35968, residues 20-764: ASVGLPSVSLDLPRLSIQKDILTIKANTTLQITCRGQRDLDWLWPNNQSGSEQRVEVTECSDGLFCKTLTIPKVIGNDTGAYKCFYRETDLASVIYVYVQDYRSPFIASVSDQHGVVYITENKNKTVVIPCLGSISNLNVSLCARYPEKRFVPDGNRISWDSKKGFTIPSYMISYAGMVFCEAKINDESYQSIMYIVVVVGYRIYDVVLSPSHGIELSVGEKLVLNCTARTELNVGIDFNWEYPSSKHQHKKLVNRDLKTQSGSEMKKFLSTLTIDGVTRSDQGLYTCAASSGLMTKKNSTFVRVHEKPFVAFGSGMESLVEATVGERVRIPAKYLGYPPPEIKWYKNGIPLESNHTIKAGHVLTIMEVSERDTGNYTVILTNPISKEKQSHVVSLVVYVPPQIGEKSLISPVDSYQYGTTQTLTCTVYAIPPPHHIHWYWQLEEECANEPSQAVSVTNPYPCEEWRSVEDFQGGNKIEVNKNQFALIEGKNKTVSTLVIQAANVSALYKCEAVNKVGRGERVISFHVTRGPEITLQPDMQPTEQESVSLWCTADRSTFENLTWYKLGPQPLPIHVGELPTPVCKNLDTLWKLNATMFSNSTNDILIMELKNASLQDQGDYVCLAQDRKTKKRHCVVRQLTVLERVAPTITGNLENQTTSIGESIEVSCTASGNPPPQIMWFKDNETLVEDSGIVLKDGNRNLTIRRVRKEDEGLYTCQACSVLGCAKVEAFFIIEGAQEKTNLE
UniProt P35916, residues 25-775: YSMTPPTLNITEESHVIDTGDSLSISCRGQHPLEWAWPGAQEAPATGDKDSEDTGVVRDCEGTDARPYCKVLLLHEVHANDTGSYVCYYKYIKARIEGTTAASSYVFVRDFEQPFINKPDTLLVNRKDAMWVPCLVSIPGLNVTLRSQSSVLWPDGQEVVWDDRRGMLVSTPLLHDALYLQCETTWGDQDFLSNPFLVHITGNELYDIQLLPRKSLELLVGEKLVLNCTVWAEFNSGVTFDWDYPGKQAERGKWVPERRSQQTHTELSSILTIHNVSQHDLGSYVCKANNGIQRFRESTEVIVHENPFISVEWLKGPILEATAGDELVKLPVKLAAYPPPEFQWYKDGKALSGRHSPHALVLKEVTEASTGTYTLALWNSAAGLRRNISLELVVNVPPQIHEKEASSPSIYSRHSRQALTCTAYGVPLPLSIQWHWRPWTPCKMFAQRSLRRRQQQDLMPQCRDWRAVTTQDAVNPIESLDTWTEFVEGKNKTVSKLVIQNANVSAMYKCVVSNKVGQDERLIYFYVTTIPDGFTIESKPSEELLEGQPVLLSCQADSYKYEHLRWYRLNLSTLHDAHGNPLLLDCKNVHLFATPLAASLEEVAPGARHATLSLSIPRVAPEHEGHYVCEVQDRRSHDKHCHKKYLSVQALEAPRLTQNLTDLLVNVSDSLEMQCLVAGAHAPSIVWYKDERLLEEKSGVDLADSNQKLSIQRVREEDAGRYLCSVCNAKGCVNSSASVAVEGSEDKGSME

Assays:
VEGFR-2-Ig (human) [1] = molecular target: VEGFR-2-Ig (human) (UniProt P35968); test: pull-down with receptor-Ig on protein-A sepharose, Western blot (FIG. 9C)
VEGFR-3-Ig (human) [2] = molecular target: VEGFR-3-Ig (human) (UniProt P35916); test: as above
VEGFR-2-Ig (human) [3] = molecular target: VEGFR-2-Ig (human) (UniProt P35968); test: pull-down with receptor-Ig on protein-A sepharose, Western blot
VEGFR-3-Ig (human) [4] = molecular target: VEGFR-3-Ig (human) (UniProt P35916); test: as above
[5] = molecular target: VEGFR-3 (as used in the biosensor analysis) (UniProt P35916); test: SPR biosensor (summary of Example 6)

B1: mature form of VEGF-D generated by furin (ligand, human, UniProt O43915 89-205, looked up)
chain: FAATFYDIETLKVIDEEWQRTQCSPRETCVEVASELGKSTNTFFKPPCVNVFRCGGCCNEESLICMNTSTSYISKQLFEISVPLTSVPELVPVKVANHTGCKCLPTAPRHPYSIIRR
notes: range 89-205; Present in conditioned medium of LoVo cells co-transfected with pVDAPEX FULL-N-FLAG and pcDNA3:furin; not purified; also called ˜21 kDa VEGF-D species; mature VEGF-D
binding (VEGFR-2-Ig (human) [1]): binds | binding (VEGFR-3-Ig (human) [2]): binds | binding (VEGFR-2-Ig (human) [3]): binds | binding (VEGFR-3-Ig (human) [4]): binds

B2: VEGF-DSSTS.IISS (ligand)
chain: NEHGPVKRSSQSTLERSEQQIRAASSLEELLRITHSEDWKLWRCRLRLKSFTSMDSRSASHSSTSFAATFYDIETLKVIDEEWQRTQCSPRETCVEVASELGKSTNTFFKPPCVNVFRCGGCCNEESLICMNTSTSYISKQLFEISVPLTSVPELVPVKVANHTGCKCLPTAPRHPYSIISSSIQIPEEDRCSHSKKLCPIDMLWDSNKCKCVLQEENPLAGTEDHSHLQEPALCGPHMMFDEDRCECVCKTPCPKDLIQHPKNCSCFECKESLETCCQKHKLFHPDTCSCEDRCPFHTRPCASGKTACAKHCRFPKEKRAAQGPHSRKNP
binding [5]: binds
